These results are taken from PMC11844287.

By UniProt entry, the sequences of proteins in these tests, tags left out.
UniProt Q15717: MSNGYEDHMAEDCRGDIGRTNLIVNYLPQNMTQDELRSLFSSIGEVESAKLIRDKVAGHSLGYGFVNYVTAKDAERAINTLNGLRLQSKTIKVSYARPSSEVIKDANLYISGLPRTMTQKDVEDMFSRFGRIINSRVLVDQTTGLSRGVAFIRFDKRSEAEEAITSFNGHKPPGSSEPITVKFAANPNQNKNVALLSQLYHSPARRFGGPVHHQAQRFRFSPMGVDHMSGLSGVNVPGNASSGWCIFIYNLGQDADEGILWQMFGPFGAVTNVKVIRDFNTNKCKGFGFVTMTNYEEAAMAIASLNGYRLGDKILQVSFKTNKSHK

The target in this experiment is T1, B cell receptor associated protein 31 (BAP31) (human (endogenous in HCC cells)) (UniProt P51572).
T1 sequence: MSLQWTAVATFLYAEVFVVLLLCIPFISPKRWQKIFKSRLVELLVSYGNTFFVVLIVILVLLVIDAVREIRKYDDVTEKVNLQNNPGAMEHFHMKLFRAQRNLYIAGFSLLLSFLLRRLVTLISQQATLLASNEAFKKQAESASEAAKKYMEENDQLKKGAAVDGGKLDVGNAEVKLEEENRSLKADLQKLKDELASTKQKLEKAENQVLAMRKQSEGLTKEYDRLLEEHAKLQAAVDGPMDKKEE
Briefly: co-IP; lysates of HCC cells immunoprecipitated with anti-BAP31, anti-ELAVL1 or mouse IgG isotype antibody.

These are yes or no findings as the source states them, for the method shown. In cells and extracts the contact can be indirect. Some binding calls cover weakened binding; strength is not graded here.

“embryonic lethal abnormal vision like 1 (ELAVL1) (from UniProt Q15717 1-326)”: the binding entry is listed as “binds”.
